Patent US5719128A (Akzo Nobel N.V., priority 1991, dated 1998)

Test: general procedure: solution-phase peptide synthesis; DCC/HOBt
Conditions: coupling step, acetate

Z-Arg(Z)2 -psi[CO--CH2 ]-Gly-phe-Lys(Boc)OtBu
step yield: 85%
